Experimental data: PubChem BioAssay AID1259308 (NCATS, 2017)
Shown is an unselected part of about 59,000 deposited reagents. About 1,510 of all reagents (2.6%) were called active. 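Calls use total luciferase alone and ignore viability, so some active siRNAs may act by altering cell number.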 Further read-outs or replicates are left out here.

Assay: 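Candidate targets for better recombinant protein yield in mammalian cells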 (primary screen)
System: human HEK293 embryonic kidney cells stably expressing firefly luciferase (HEK-CMV-Luc2-Hygro)
Reagents: single siRNA against human genes, 0.8 pmol siRNA per well
Time to read-out: 72 h
Measurement: 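Luciferase light (ONE-Glo) measured on one replicate plate set and viability (CellTiter-Glo) on the other, scaled to a negative control siRNA, with robust z-scores and luciferase per cell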
Scale: total luciferase, z-score and total luciferase, % of control: higher = more reporter protein produced
Hit rule: 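Active when the median/MAD z-score for overall luciferase is greater than 3; a gene was taken forward for validation with new siRNAs if at least two of its three siRNAs passed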
Meaning of the calls: active = raised luciferase; inactive = no rise

SRGN (serglycin) [SID160714874]: total luciferase, z-score = -2.44; total luciferase, % of control = 33.3; Call = inactive
SRGN (serglycin) [SID160714875]: total luciferase, z-score = 0.438; total luciferase, % of control = 90.6; Call = inactive
SRGN (serglycin) [SID160733609]: total luciferase, z-score = 0.426; total luciferase, % of control = 90.4; Call = inactive
CDV3 (CDV3 homolog) [SID160743820]: total luciferase, z-score = 2.92; total luciferase, % of control = 140; Call = inactive
CDV3 (CDV3 homolog) [SID160743821]: total luciferase, z-score = 0.135; total luciferase, % of control = 84.6; Call = inactive
CDV3 (CDV3 homolog) [SID160743822]: total luciferase, z-score = -1.58; total luciferase, % of control = 50.4; Call = inactive
PTPRS (protein tyrosine phosphatase receptor type S) [SID160715430]: total luciferase, z-score = 0.971; total luciferase, % of control = 101; Call = inactive
PTPRS (protein tyrosine phosphatase receptor type S) [SID160715431]: total luciferase, z-score = 0.582; total luciferase, % of control = 93.5; Call = inactive
PTPRS (protein tyrosine phosphatase receptor type S) [SID160715432]: total luciferase, z-score = -0.577; total luciferase, % of control = 70.4; Call = inactive
GRB2 (growth factor receptor bound protein 2) [SID160733015]: total luciferase, z-score = 2; total luciferase, % of control = 122; Call = inactive
GRB2 (growth factor receptor bound protein 2) [SID160774042]: total luciferase, z-score = -1.81; total luciferase, % of control = 45.8; Call = inactive
GRB2 (growth factor receptor bound protein 2) [SID160774053]: total luciferase, z-score = -1.48; total luciferase, % of control = 52.5; Call = inactive
RAB27A (RAB27A, member RAS oncogene family) [SID160715555]: total luciferase, z-score = -0.517; total luciferase, % of control = 71.6; Call = inactive
RAB27A (RAB27A, member RAS oncogene family) [SID160715556]: total luciferase, z-score = 0.121; total luciferase, % of control = 84.3; Call = inactive
RAB27A (RAB27A, member RAS oncogene family) [SID160715557]: total luciferase, z-score = -0.529; total luciferase, % of control = 71.4; Call = inactive
CDA (cytidine deaminase) [SID160739907]: total luciferase, z-score = -0.908; total luciferase, % of control = 63.8; Call = inactive
CDA (cytidine deaminase) [SID160739918]: total luciferase, z-score = 0.24; total luciferase, % of control = 86.7; Call = inactive
CDA (cytidine deaminase) [SID160739929]: total luciferase, z-score = 0.322; total luciferase, % of control = 88.3; Call = inactive
NFAT5 (nuclear factor of activated T cells 5) [SID160729100]: total luciferase, z-score = -0.61; total luciferase, % of control = 69.7; Call = inactive
NFAT5 (nuclear factor of activated T cells 5) [SID160729102]: total luciferase, z-score = -0.907; total luciferase, % of control = 63.8; Call = inactive
NFAT5 (nuclear factor of activated T cells 5) [SID160730471]: total luciferase, z-score = -0.36; total luciferase, % of control = 74.7; Call = inactive
AGO2 (argonaute RISC catalytic component 2) [SID160738489]: total luciferase, z-score = -0.697; total luciferase, % of control = 68; Call = inactive
AGO2 (argonaute RISC catalytic component 2) [SID160738490]: total luciferase, z-score = 0.154; total luciferase, % of control = 85; Call = inactive
AGO2 (argonaute RISC catalytic component 2) [SID160738491]: total luciferase, z-score = -0.176; total luciferase, % of control = 78.4; Call = inactive
PKM (pyruvate kinase M1/2) [SID160714392]: total luciferase, z-score = 0.14; total luciferase, % of control = 84.7; Call = inactive
PKM (pyruvate kinase M1/2) [SID160714393]: total luciferase, z-score = -1.14; total luciferase, % of control = 59.2; Call = inactive
PKM (pyruvate kinase M1/2) [SID160731423]: total luciferase, z-score = -1.18; total luciferase, % of control = 58.4; Call = inactive
XCL1 (X-C motif chemokine ligand 1) [SID160716501]: total luciferase, z-score = -0.475; total luciferase, % of control = 72.4; Call = inactive
XCL1 (X-C motif chemokine ligand 1) [SID160716502]: total luciferase, z-score = 0.112; total luciferase, % of control = 84.1; Call = inactive
XCL1 (X-C motif chemokine ligand 1) [SID160716503]: total luciferase, z-score = -0.554; total luciferase, % of control = 70.9; Call = inactive
ACTRT3 (actin related protein T3) [SID160752342]: total luciferase, z-score = 0.351; total luciferase, % of control = 88.9; Call = inactive
ACTRT3 (actin related protein T3) [SID160752344]: total luciferase, z-score = -0.715; total luciferase, % of control = 67.7; Call = inactive
ACTRT3 (actin related protein T3) [SID160752345]: total luciferase, z-score = -1.04; total luciferase, % of control = 61.2; Call = inactive

Part of the list above in another layout:
{"target":"NFAT5 (nuclear factor of activated T cells 5)","PubChem SID":"SID160729100","total luciferase, z-score":-0.61,"total luciferase, % of control":69.7,"Call":"inactive"}
{"target":"NFAT5 (nuclear factor of activated T cells 5)","PubChem SID":"SID160729102","total luciferase, z-score":-0.907,"total luciferase, % of control":63.8,"Call":"inactive"}
